Test results published in article PMC10863188.
These are yes or no findings as the source states them, for the method shown. Binding seen in cells or lysates may run through a third protein. Some entries that bind do so weakly or less than the wild type.

Chains of the proteins cited; added tags and fusions are not shown.
UniProt Q09472: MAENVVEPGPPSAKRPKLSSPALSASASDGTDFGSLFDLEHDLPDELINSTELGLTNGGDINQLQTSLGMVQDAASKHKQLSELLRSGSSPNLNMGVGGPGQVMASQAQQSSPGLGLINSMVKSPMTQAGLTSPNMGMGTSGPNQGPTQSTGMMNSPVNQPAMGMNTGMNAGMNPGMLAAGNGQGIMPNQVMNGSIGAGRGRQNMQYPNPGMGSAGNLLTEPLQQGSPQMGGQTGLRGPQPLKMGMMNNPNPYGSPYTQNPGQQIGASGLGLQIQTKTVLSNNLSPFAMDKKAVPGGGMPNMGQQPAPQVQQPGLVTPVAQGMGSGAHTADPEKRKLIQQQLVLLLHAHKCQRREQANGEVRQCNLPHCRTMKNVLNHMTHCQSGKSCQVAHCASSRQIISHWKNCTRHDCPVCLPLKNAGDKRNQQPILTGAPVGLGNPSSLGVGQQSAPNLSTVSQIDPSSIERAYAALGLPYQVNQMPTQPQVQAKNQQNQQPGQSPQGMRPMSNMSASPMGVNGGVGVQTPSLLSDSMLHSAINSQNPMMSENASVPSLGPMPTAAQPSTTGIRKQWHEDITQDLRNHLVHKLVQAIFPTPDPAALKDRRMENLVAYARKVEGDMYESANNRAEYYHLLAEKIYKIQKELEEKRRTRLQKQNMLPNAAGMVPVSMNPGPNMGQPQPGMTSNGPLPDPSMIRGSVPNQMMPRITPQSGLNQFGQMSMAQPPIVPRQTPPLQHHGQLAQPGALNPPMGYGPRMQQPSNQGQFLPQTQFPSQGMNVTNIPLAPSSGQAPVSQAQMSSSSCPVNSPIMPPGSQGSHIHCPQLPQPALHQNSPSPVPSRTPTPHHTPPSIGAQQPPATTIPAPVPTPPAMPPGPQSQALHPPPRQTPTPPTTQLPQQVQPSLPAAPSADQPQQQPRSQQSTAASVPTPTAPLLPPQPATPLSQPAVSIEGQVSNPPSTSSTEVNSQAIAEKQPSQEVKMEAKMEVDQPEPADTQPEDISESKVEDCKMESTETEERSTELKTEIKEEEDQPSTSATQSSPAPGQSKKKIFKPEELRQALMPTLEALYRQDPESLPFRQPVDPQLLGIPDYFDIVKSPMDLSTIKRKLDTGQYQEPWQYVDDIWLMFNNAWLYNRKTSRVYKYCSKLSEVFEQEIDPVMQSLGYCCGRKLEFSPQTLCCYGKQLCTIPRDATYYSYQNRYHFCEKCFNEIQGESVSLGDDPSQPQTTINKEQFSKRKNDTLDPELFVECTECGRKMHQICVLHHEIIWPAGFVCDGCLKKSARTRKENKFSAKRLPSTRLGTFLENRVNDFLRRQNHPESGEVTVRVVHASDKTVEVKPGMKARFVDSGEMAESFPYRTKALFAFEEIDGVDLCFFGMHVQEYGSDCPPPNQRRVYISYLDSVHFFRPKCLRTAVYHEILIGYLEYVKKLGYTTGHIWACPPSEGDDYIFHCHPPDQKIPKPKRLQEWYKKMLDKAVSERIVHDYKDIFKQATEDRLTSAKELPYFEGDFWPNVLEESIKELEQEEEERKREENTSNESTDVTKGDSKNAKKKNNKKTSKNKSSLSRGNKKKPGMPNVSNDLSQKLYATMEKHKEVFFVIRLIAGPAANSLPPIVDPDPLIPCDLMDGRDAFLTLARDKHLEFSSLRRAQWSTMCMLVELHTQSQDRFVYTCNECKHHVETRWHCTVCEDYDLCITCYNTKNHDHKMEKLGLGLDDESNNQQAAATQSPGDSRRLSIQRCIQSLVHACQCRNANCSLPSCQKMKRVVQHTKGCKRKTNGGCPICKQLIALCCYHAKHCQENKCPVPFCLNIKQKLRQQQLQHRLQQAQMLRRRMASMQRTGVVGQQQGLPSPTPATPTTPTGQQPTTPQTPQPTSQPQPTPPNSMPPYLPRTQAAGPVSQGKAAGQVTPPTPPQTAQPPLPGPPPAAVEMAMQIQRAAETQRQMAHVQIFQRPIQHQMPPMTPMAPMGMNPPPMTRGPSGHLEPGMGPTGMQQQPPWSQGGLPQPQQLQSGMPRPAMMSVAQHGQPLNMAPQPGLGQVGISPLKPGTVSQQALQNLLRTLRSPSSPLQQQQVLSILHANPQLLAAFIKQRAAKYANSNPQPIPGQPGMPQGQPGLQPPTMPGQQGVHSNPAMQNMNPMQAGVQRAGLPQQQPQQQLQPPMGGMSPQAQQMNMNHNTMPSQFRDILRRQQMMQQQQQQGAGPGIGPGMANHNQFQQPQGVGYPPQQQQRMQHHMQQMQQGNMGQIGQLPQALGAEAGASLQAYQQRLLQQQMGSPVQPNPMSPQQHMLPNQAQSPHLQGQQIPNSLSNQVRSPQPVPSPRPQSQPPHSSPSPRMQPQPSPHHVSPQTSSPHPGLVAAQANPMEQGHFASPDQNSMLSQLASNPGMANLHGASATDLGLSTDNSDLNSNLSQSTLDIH
UniProt P09429: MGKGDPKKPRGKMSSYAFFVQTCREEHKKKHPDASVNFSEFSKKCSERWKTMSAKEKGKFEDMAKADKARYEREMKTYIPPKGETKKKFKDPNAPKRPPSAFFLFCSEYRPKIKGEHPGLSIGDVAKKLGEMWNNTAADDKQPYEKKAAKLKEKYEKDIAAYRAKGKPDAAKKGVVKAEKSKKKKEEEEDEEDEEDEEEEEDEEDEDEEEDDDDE
UniProt Q96DH6: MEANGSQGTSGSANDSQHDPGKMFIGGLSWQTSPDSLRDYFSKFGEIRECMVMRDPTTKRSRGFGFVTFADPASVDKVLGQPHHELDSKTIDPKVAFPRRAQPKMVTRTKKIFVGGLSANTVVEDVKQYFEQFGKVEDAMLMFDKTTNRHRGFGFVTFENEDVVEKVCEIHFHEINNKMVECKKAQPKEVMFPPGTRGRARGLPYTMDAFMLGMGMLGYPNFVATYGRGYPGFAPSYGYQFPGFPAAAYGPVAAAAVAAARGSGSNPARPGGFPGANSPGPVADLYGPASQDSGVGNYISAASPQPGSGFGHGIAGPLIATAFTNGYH

How the values were obtained:
[1] = target: acetyltransferase P300 (EP300), endogenous (human (endogenous in SW620 and LOVO)) (UniProt Q09472); assay: co-IP; endogenous co-immunoprecipitation from SW620 and LOVO cell lysates; 2 ug antibody 8 h at 4 C, Protein A/G magnetic beads, Western blot
Myc-HMGB1 = Myc-HMGB1 (UniProt P09429); assay: co-IP; exogenous co-immunoprecipitation of Flag-MSI2 and Myc-HMGB1 in HEK 293 T cells; 2 ug antibody 8 h at 4 C, Protein A/G magnetic beads, Western blot

binding [1] | binding (Myc-HMGB1) | Substance
binds |  | Musashi-2 (MSI2), endogenous (from UniProt Q96DH6 1-328)
 | no binding | Flag-MSI2 (from UniProt Q96DH6 1-328)
